Test results taken from PMC10806146.
Results are given in words; binding and its absence hold for the method and conditions named. Binding seen in cells or lysates may run through a third protein. A result given as binding can be weak or reduced; the word gives no strength.

The chains behind the UniProt entries cited, without tags or fusion partners. Where a name states a change or a piece, a line headed by the entry shows the natural chain unless it says otherwise.
UniProt Q9Y616: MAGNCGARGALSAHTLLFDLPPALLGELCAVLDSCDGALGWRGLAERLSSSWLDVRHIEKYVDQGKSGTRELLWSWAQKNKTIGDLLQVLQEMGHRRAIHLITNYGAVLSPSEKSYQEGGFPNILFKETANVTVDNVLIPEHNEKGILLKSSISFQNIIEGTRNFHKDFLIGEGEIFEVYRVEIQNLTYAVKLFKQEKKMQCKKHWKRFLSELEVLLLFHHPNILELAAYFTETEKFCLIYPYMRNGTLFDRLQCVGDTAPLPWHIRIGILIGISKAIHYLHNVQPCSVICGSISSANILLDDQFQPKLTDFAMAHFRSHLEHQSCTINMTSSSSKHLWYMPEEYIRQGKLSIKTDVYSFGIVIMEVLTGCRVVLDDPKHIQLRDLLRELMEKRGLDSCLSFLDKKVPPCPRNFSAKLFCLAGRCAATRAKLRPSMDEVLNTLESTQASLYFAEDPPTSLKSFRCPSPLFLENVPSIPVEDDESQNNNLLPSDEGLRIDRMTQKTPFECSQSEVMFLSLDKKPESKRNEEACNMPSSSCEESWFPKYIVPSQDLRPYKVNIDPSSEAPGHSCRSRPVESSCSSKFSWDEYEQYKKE
UniProt Q99836: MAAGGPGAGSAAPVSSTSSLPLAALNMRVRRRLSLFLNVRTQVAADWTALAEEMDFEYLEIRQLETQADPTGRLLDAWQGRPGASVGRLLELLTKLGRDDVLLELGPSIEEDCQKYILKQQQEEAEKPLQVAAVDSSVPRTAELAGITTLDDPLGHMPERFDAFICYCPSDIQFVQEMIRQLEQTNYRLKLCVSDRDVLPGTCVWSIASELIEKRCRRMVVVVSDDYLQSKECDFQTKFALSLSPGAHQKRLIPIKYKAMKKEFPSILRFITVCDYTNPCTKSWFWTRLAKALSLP

Target: IRAK-M mutated at Pro22/Ala23 (human) (UniProt Q9Y616)
Assay: co-IP; IRAK-M WT or mutant co-expressed with IRAK-4-FLAG and MyD88-HA in 293T cells; IP with anti-IRAK-M 1F6 and protein A/G agarose; blots with anti-FLAG, anti-HA and anti-IRAK-M 4369

- binding: binds
Substance: MyD88-HA (from UniProt Q99836 1-296)
